This experiment deals with human CD147 extracellular domain (ECD) (human) (UniProt P35613). Description: ELISA screen of hybridomas. (In general: An ELISA detects its analyte on a solid surface through an enzyme-linked reagent.)

The chains behind the UniProt entries cited, without tags or fusion partners. Residues count along the entry.
UniProt P35613, residues 138-325: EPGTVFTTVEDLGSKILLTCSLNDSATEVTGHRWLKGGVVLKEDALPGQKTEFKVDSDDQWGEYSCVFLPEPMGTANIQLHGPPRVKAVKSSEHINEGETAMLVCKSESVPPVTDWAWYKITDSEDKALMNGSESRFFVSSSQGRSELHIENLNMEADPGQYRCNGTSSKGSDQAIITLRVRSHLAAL

No constants are given. Whether binding was seen depends on the method and setting. Some binding calls cover weakened binding; strength is not graded here.

B1: mouse anti-human CD147 3A11 monoclonal antibody (antibody, V domains shown)
VH: EVKLEESGGGLVQPGGSMKLSCVASGFTFSNYWMNWVRQSPEKGLEWVGEIRLKSYNYATHYVESVEGRFTISRDDSKSSVYLQMNNLRAEDTGIYYCTAAGTDYWGQGTTLTVSS
VL: SIVMTQIPKILLVSAGDRVTITCKASQSVRTDVAWYQQKPGQSPKLLIYYSSNRYTGVPDRFTGSGYGTDFTFTISTVQAEDLAVYFCQQDYSSPFTFGSGTKLEIK
B1: the binding result is “binds”.

For the origin of these results see patent publication WO2019173771A1.
